Our source for the NP40-soluble protein abundance values is the supplement of paper PMC6411743.

Sequences of proteins named here, by UniProt entry; tags and fusion partners are left off. A change or cut given only in a name is not applied to a line headed by its entry.
UniProt Q13064: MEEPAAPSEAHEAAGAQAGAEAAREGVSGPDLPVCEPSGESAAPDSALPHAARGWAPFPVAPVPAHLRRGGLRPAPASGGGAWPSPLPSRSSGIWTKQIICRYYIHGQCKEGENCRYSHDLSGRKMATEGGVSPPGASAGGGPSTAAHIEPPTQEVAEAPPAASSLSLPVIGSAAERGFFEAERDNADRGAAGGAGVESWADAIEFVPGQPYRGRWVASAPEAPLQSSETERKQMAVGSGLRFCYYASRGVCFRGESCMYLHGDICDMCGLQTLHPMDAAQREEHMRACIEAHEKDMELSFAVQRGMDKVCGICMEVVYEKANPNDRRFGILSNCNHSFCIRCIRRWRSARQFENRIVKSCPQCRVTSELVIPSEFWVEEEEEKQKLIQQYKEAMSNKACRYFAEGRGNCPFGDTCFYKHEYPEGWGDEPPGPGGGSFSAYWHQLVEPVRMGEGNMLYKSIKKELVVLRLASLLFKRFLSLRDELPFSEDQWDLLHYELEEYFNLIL
UniProt Q02535: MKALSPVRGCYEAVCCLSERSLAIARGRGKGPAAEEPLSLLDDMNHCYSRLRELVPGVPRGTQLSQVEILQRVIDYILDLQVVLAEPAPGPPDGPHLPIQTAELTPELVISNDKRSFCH
UniProt Q06945: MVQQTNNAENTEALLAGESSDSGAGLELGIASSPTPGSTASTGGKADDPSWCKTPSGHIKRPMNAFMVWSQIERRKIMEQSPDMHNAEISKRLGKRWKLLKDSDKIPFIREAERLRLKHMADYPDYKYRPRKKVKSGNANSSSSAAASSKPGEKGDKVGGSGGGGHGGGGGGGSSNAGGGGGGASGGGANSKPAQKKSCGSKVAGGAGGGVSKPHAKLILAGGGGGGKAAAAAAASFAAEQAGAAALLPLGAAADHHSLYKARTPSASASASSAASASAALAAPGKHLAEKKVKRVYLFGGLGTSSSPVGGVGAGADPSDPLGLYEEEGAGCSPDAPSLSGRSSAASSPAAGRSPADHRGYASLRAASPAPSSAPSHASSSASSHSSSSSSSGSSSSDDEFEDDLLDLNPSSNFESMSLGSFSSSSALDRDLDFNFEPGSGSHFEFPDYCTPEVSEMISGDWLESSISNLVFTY
UniProt Q02338: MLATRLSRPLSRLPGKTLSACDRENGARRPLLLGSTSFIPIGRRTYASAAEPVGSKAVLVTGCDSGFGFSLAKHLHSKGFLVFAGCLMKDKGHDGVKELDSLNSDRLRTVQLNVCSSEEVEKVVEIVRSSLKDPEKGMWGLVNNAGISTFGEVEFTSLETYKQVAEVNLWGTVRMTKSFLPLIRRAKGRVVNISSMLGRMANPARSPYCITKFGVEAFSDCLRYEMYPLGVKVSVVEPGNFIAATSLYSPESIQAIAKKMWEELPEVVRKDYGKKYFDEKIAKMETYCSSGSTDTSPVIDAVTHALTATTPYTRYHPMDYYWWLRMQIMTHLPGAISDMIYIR
UniProt Q13112, whole entry, looked up: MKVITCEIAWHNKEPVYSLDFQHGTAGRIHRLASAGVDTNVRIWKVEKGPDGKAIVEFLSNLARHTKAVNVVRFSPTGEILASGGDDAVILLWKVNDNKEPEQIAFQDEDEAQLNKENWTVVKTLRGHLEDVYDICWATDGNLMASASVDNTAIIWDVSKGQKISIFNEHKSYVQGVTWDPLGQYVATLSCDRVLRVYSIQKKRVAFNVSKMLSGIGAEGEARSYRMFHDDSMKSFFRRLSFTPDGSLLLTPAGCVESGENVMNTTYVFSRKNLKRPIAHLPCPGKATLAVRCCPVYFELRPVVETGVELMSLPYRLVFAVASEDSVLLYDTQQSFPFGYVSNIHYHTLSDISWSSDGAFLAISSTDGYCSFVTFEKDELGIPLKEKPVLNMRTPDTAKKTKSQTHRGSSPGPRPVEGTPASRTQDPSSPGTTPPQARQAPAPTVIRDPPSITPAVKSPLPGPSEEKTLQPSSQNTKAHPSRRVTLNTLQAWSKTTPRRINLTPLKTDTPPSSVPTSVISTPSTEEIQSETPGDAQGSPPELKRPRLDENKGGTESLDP
UniProt Q12792, whole entry: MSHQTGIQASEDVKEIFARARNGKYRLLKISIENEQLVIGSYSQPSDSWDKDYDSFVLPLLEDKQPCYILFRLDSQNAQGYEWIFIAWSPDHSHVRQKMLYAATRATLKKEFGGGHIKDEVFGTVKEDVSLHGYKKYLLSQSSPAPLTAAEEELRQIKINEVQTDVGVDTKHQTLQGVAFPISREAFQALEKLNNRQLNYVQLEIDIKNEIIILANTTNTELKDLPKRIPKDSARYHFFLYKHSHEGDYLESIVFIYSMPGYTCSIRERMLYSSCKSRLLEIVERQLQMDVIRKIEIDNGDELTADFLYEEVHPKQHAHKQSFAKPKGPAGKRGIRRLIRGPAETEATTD
UniProt Q03701: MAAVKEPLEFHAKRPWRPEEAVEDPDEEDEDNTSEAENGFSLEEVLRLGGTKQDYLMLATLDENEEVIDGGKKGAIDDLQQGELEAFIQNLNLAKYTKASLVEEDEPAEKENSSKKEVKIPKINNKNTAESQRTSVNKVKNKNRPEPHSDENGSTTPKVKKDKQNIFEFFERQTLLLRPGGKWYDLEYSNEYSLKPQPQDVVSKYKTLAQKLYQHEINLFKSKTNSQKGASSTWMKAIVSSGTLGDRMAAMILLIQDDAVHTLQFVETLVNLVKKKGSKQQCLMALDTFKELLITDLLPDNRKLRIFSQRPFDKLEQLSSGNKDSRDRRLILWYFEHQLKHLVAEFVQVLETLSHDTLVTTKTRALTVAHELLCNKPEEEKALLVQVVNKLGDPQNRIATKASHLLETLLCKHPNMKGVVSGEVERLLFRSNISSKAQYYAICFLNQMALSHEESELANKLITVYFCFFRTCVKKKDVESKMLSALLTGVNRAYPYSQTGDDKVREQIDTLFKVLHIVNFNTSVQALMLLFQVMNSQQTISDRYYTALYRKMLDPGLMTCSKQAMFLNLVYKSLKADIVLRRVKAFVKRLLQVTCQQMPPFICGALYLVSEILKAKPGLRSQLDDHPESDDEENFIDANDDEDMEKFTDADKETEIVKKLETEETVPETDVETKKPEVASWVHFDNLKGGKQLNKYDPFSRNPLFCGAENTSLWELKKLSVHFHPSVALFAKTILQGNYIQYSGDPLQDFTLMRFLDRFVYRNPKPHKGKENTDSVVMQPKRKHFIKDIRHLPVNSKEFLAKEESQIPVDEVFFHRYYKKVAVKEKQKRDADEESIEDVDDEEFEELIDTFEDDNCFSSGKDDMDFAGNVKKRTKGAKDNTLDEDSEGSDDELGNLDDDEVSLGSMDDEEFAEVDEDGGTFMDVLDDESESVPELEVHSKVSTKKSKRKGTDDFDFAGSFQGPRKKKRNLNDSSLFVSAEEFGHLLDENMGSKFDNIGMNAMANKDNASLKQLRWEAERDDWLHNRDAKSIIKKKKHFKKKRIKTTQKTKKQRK

± gives the standard deviation of the averaged measurements. This is a selection; strong and weak results do not stand in their true shares.

Compound in this assay: Nc1ncnc2c1ncn2[C@@H]1O[C@H](COP(=O)(O)OP(=O)(O)OP(=O)(O)O)[C@@H](O)[C@H]1O [adenosine triphosphate]
In words: NP40-soluble protein abundance relative to vehicle (solubility fold change) (ratio); higher = more soluble protein in presence of ATP. Summed up: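 Across three independent experiments, values are fold changes against the detergent-processed vehicle for each replicate, based on vsn-normalised intensities. The samples were Jurkat crude lysate treated with eight concentrations (0.1 to 10 mM) for 10 min at room temperature and then 3 min at 37 °C. Lysate was solubilised with 0.8% NP40 and benzonase, ultracentrifuged, and the supernatant analysed by TMT-labelled LC-MS/MS.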

For the target MKRN3 (UniProt Q13064), the NP40-soluble protein abundance (concentration: 1mM) came to 0.996 ± 0.053; the NP40-soluble protein abundance (concentration: 2mM) was 1.03 ± 0.058; the NP40-soluble protein abundance (concentration: 4mM) is 0.971 ± 0.044; the NP40-soluble protein abundance (concentration: 6mM) stood at 1 ± 0.013; the NP40-soluble protein abundance (concentration: 8mM) came to 0.993 ± 0.059; the NP40-soluble protein abundance (concentration: 10mM) was 1.004 ± 0.0084.
As to UniProt Q02535, the NP40-soluble protein abundance (concentration: 1mM) worked out at 0.933 ± 0.068; the NP40-soluble protein abundance (concentration: 2mM) was found to be 0.998 ± 0.034; the NP40-soluble protein abundance (concentration: 4mM) turned out to be 0.918 ± 0.072; the NP40-soluble protein abundance (concentration: 6mM) was determined as 0.943 ± 0.065; the NP40-soluble protein abundance (concentration: 8mM) came to 0.918 ± 0.035; the NP40-soluble protein abundance (concentration: 10mM) is 0.925 ± 0.015.
In the case of SOX4 (UniProt Q06945), the NP40-soluble protein abundance turned out to be 1 ± 0.12 (concentration: 1mM); 0.959 ± 0.034 (concentration: 2mM); 0.966 ± 0.051 (concentration: 4mM); 1.04 ± 0.086 (concentration: 6mM); 0.971 ± 0.023 (concentration: 8mM); 0.953 ± 0.068 (concentration: 10mM).
Take UniProt Q02338 and related entries: the NP40-soluble protein abundance by setting is: (concentration: 1mM) 0.995 ± 0.089; (concentration: 2mM) 0.983 ± 0.069; (concentration: 4mM) 0.949 ± 0.068; (concentration: 6mM) 0.97 ± 0.094; (concentration: 8mM) 1.02 ± 0.035; (concentration: 10mM) 0.999 ± 0.052.
CHAF1B (UniProt Q13112): the NP40-soluble protein abundance is, setting by setting: (concentration: 1mM) 1.01 ± 0.035; (concentration: 2mM) 1 ± 0.038; (concentration: 4mM) 1.01 ± 0.015; (concentration: 6mM) 0.994 ± 0.045; (concentration: 8mM) 0.994 ± 0.02; (concentration: 10mM) 0.998 ± 0.034.
On to PWP1 (UniProt Q13610), for which the NP40-soluble protein abundance runs as follows: (concentration: 1mM) 0.962 ± 0.015; (concentration: 2mM) 0.993 ± 0.034; (concentration: 4mM) 0.987 ± 0.027; (concentration: 6mM) 0.97 ± 0.069; (concentration: 8mM) 0.999 ± 0.056; (concentration: 10mM) 1.04 ± 0.03.
With TWF1 (UniProt Q12792), the NP40-soluble protein abundance reads like this: (concentration: 1mM) 1.02 ± 0.045; (concentration: 2mM) 1 ± 0.037; (concentration: 4mM) 0.994 ± 0.062; (concentration: 6mM) 0.963 ± 0.044; (concentration: 8mM) 0.997 ± 0.06; (concentration: 10mM) 0.986 ± 0.025.
With CEBPZ (UniProt Q03701), the NP40-soluble protein abundance is, setting by setting: (concentration: 1mM) 1.04 ± 0.028; (concentration: 2mM) 1.05 ± 0.056; (concentration: 4mM) 1.14 ± 0.015; (concentration: 6mM) 1.21 ± 0.016; (concentration: 8mM) 1.21 ± 0.013; (concentration: 10mM) 1.32 ± 0.024.
